These are yes or no findings as the source states them, for the method shown. Some binding calls cover weakened binding; strength is not graded here.
Tests used:
[1] = target: Cynomolgus monkey EGFR (recombinant, soluble monomeric) (cynomolgus monkey); assay: ELISA, coated antigen (FIG. 3A legend)
[2] = target: Human EGFR (recombinant, soluble monomeric) (human) (UniProt P00533); assay: ELISA, coated antigen (FIG. 3A legend)
[3] = target: Mouse EGFR (recombinant, soluble monomeric) (mouse) (UniProt Q01279); assay: ELISA, coated antigen (FIG. 3A legend)
[4] = target: Human EGFR (recombinant, soluble monomeric) (human) (UniProt P00533); assay: ELISA screen of mutagenised libraries expressed as bacterial Fab fragments, human EGFR
[5] = target: Cynomolgus monkey EGFR (recombinant, soluble monomeric) (cynomolgus monkey); assay: ELISA, antigen coated at 1 ug/mL, anti-human Fab-HRP detection, A450
[6] = target: Human EGFR (recombinant, soluble monomeric) (human) (UniProt P00533); assay: as above
[7] = target: Mouse EGFR (recombinant, soluble monomeric) (mouse) (UniProt Q01279); assay: as above
[8] = target: Cynomolgus monkey EGFR (recombinant, soluble monomeric) (cynomolgus monkey); assay: ELISA screen of mutagenised libraries expressed as bacterial Fab fragments, cynomolgus EGFR
[9] = target: Cynomolgus monkey EGFR (recombinant, soluble monomeric) (cynomolgus monkey); assay: ELISA, antigen coated at 1 µg/mL, antibody titrated from 10 µg/mL, anti-human Fab-HRP detection
[10] = target: Human EGFR (recombinant, soluble monomeric) (human) (UniProt P00533); assay: as above
[11] = target: Mouse EGFR (recombinant, soluble monomeric) (mouse) (UniProt Q01279); assay: as above

Measured: binding

B1: RAA22 IgG (antibody, V domains shown)
VH: QVQLVQSGAEVKKPGSSVKVSCKASGGTFSDNDFSWVRQAPGQGLEWMGAIVAVFRTETYAQKFQDRVKITADISTRTTYMELSSLRSEDTAVYYCARRLMSAISGPGAPLLMWGQGTLVTVSS
VL: QSALTQPRSVSGSPGQSVTISCTGTSSDVGGYNYVSWYQQHPGKAPKLMIYDVSKRPSGVPDRFSGSKSGNTASLTISGLQAEDEADYYCSSYTSSDTLEIFGGGTKLTVL
notes: Bivalent parental IgG; Only the variable domains are tied to the parental IgG; also called anti-EGFR antibody clone RAA22
binds: all assays above
